Record: PubChem BioAssay AID1259254 (NCATS, 2017)

Assay: 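Finding genes that stop cells copying their DNA twice in one cycle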 (primary screen)
Cells: human HCT116 colorectal cancer cells
Reagents: single siRNA against human genes
Timing: 3 days
Detection: 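Nuclei stained with Hoechst and imaged; cell-cycle phase assigned by DNA content; G2 share scaled per plate, non-targeting siRNA 0%, GMNN siRNA 100%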
Scale: G2 robust z-score and G2 cells, % of GMNN control: higher = more G2 cells, more excess DNA replication
Active means: 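Active siRNAs have a G2 robust z of 5 or more median absolute deviations over the median, which in these data means about 38% or higher of GMNN control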
This is one part, drawn at random, of about 59,000 reagents. About 1,550 of them (2.6%) were called active. 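G2 share is only a proxy for re-replication; each gene was hit by three separate siRNAs, and active genes were retested.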 Entries without a mark were called inactive. Reagents against one gene are numbered here. Not all columns of the deposit are shown. The record does not give: the amount of reagent.

For OR2AT4 (olfactory receptor family 2 subfamily AT member 4) #1, the values are G2 robust z-score -0.00482; G2 cells, % of GMNN control 2.93.
OR2AT4 (olfactory receptor family 2 subfamily AT member 4) #2 scored G2 robust z-score 0.126; G2 cells, % of GMNN control 3.85.
Silencing of OR2AT4 (olfactory receptor family 2 subfamily AT member 4) #3 gave: G2 robust z-score -0.424; G2 cells, % of GMNN control -0.0126.
Knock-down of PDE12 (phosphodiesterase 12) #1 came out at: G2 robust z-score -0.0206; G2 cells, % of GMNN control 2.82.
With knock-down of PDE12 (phosphodiesterase 12) #2 the results were G2 robust z-score 7.43 (active); G2 cells, % of GMNN control 55.3.
For PDE12 (phosphodiesterase 12) #3, the entry reads G2 robust z-score -0.0209; G2 cells, % of GMNN control 2.82.
Knock-down of RGS4 (regulator of G protein signaling 4) #1 came out at: G2 robust z-score -0.276; G2 cells, % of GMNN control 1.03.
RGS4 (regulator of G protein signaling 4) #2 showed G2 robust z-score 0.215; G2 cells, % of GMNN control 4.48.
Silencing of RGS4 (regulator of G protein signaling 4) #3 gave: G2 robust z-score 2.43; G2 cells, % of GMNN control 20.1.
CD14 (CD14 molecule) #1 scored G2 robust z-score 0.0334; G2 cells, % of GMNN control 3.2.
CD14 (CD14 molecule) #2 scored G2 robust z-score -0.0861; G2 cells, % of GMNN control 2.36.
Silencing of CD14 (CD14 molecule) #3 resulted in: G2 robust z-score -0.751; G2 cells, % of GMNN control -2.32.
Knock-down of HYCC1 (hyccin PI4KA lipid kinase complex subunit 1) #1 gave: G2 robust z-score -0.748; G2 cells, % of GMNN control -2.3.
HYCC1 (hyccin PI4KA lipid kinase complex subunit 1) #2 showed G2 robust z-score 1.88; G2 cells, % of GMNN control 16.2.
With knock-down of HYCC1 (hyccin PI4KA lipid kinase complex subunit 1) #3 the results were G2 robust z-score -0.29; G2 cells, % of GMNN control 0.928.
For SLC2A1 #1, the values are G2 robust z-score -0.574; G2 cells, % of GMNN control -1.07.
SLC2A1 #2 scored G2 robust z-score -0.0764; G2 cells, % of GMNN control 2.43.
With knock-down of SLC2A1 #3 the results were G2 robust z-score 0.23; G2 cells, % of GMNN control 4.58.
With knock-down of MRPL37 (mitochondrial ribosomal protein L37) #1, the screen gave G2 robust z-score 0.0256; G2 cells, % of GMNN control 3.15.
For MRPL37 (mitochondrial ribosomal protein L37) #2, the values are G2 robust z-score -0.157; G2 cells, % of GMNN control 1.86.
With knock-down of MRPL37 (mitochondrial ribosomal protein L37) #3, the screen gave G2 robust z-score -0.532; G2 cells, % of GMNN control -0.779.
Depletion of RPL29P30 (ribosomal protein L29 pseudogene 30) #1 gave: G2 robust z-score 2.95; G2 cells, % of GMNN control 23.7.
For RPL29P30 (ribosomal protein L29 pseudogene 30) #2, the entry reads G2 robust z-score 4.31; G2 cells, % of GMNN control 33.3.
Against RPL29P30 (ribosomal protein L29 pseudogene 30) #3 the deposit lists G2 robust z-score -0.62; G2 cells, % of GMNN control -1.4.

An excerpt from above, limited to “G2 cells, % of GMNN control”:
CD14 (CD14 molecule) #1	3.2
CD14 (CD14 molecule) #2	2.36
CD14 (CD14 molecule) #3	-2.32
HYCC1 (hyccin PI4KA lipid kinase complex subunit 1) #1	-2.3
